# Source: patent publication US9539323B2, “Methods and compositions for malic enzyme 2 (ME2) as a target for cancer therapy” (Beth Israel Deaconess Medical Center, Inc., priority 2010, dated 2017)
# For at least one compound, name, drawing or mass did not settle the structure.
# What was measured:
# A549 cells [1] = test: A549 differentiation (morphology, E-cadherin, ZO-1); assay type: cell-based
# A549 cells [2] = test: A549 apoptosis (annexin); assay type: cell-based; conditions: compound treatment
compound,measurement,setting,value
COC[C@H]1OC(=O)c2coc3c2[C@@]1(C)C1=C(C3=O)[C@@H]2CCC(=O)[C@@]2(C)C[C@H]1OC(C)=O [wortmannin],E-cadherin expression,"A549 cells [1]; A549, Western blot",dose-dependent increase
same,cell morphology / growth pattern,A549 cells [1]; control A549 cells treated with compound,cobblestone morphology and an appositional growth pattern
same,apoptosis of A549 cells,A549 cells [2],induced apoptosis of A549 cells in a dose dependent manner
